Data reported in PubChem BioAssay AID504444 (National Center for Advancing Translational Sciences (NCATS), 2011).
Values joined by “and” are separate entries in the source; they are usually repeats but may differ in a detail not shown here. Equal entries are not always repeated. Screen size: about 360,000 compounds; about 7,500 (2.1%) were called active. The shares of active, inactive and inconclusive entries below differ from those in the screen. The call rests on the fitted dose curve; in most records, active means well fitted inhibition curve with a large enough effect; inconclusive means small, poorly fitted or top-dose-only effect, or effect the other way; inactive means flat fitted curve, though single readings scatter. A potency beside an inconclusive call is a rough fit, not a confirmed value.

assay: Nrf2 qHTS screen for inhibitors; conditions: A549 ARE-Fluc reporter, luciferase luminescence, 18-24 h; series mostly up to 46 µM; further: nearly all actives have a fitted effect of over 60% in size
In short: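 Quantitative HTS in A549 cells stably bearing an antioxidant response element-firefly luciferase construct. Inhibition of Nrf2-driven transcription was scored by luminescence after 18-24 h of compound exposure at 37 °C.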
Potency means the concentration at half of the fitted maximal effect.

SMILES | Potency
Cn1c(=O)n(CC(=O)O)c(=O)c2c1nc1n2CCS1 | inconclusive: 0.58 µM [activator, full curve, poor fit]
COc1ccc(C2c3c(oc4ccccc4c3=O)C(=O)N2CCCN2CCOCC2)cc1 (stereo unspecified) | inactive
CC(=O)N(Cc1nc2sc(C)c(C)c2c(=O)[nH]1)C1CCCC1 | inconclusive: 32.6 µM [falling, single point]
COc1cc(OC)c2c(c1C(CCN1CCN(c3ccccc3)CC1)c1ccc(N(C)C)cc1)OC(=O)CC2c1ccc(N(C)C)cc1 (stereo unspecified) | inactive
COc1cc(OC)c(NC(=O)COCc2cc(-c3cccs3)on2)cc1Cl | inactive
O=C(Nc1cccc(Cl)c1)Nc1cccc(C(=O)O)c1 | inconclusive: 11.6 µM [activator, partial curve]
Cc1ccc(S(=O)(=O)N2CCCC2CNC(=O)c2ccc(F)c(F)c2)cc1 (stereo unspecified) | inactive
CC(=O)c1c(C)[nH]c(C(=O)OCc2cccc(C)c2)c1C | inconclusive: 29.1 µM [falling, single point]
Cc1ccc(Cl)cc1N1CCN(C(=O)CSc2nnc3n2C(C)(C)Cc2ccccc2-3)CC1 | active: 6.51 µM
CCOC(=O)c1cnc2sc3c(n2c1=O)CCCC3 | inconclusive: 32.6 µM [falling, partial curve, poor fit]
O=C(COC(=O)c1nc(Cl)ccc1Cl)c1ccc[nH]1 | inactive
Cc1ccc(S(=O)(=O)N2CCOCC2)cc1NC(=O)COc1ccc2c(C)cc(=O)oc2c1 | inconclusive: 10.3 µM [falling, partial curve, poor fit]
C[C@]12CCC(=O)C=C1CC[C@@H]1[C@@H]2[C@@H](O)C[C@@]2(C)[C@H]1CC[C@]2(O)C(=O)COC(=O)CCC(=O)O | active: 206 nM and active: 326 nM
Cc1cccc(N2CCN(S(=O)(=O)c3ccc4c(c3)CCCN4C(=O)C3CCC3)CC2)c1C | inconclusive: 20.6 µM [falling, single point]
O=C(COC(=O)c1cccc([N+](=O)[O-])c1)Nc1ccc(Cl)cn1 | inconclusive: 18.4 µM [activator, single point]
O=C(Nc1cccc(Cl)c1)c1c(NC(=O)C(F)(F)F)sc2c1CCCC2 | inconclusive: 3.26 µM [activator, single point]
CC(=O)Nc1cccc(NC(=O)Cn2cnc3c2c(=O)n(C)c(=O)n3C)c1 | inactive
COc1ccc2cc3c(N)nn(C(=O)Cc4c[nH]c5ccccc45)c3nc2c1 | active: 16.4 µM
O=C(c1ccc(Cl)c(S(=O)(=O)N2CCOCC2)c1)N(Cc1ccco1)Cc1cccs1 | inconclusive: 29.1 µM [falling, single point]
Cc1nc(N2CCCC2)c2c(C(=O)Nc3cccc(C)c3C)c(C)oc2n1 | inconclusive: 29.1 µM [activator, single point]
CC1=C(C(=O)Nc2ccc(CC(=O)NCc3ccc(OC(C)C)cc3)cc2)SCCO1 | inconclusive: 0.651 µM [activator, full curve]
CCCc1nnc(N2C(=O)c3cccc4cccc(c34)C2=O)s1 | inconclusive: 25.9 µM [activator, partial curve, poor fit]

In a second layout: results already given.

| SMILES | Potency |
| --- | --- |
| COc1cc(OC)c2c(c1C(CCN1CCN(c3ccccc3)CC1)c1ccc(N(C)C)cc1)OC(=O)CC2c1ccc(N(C)C)cc1 (stereo unspecified) | inactive |
| COc1cc(OC)c(NC(=O)COCc2cc(-c3cccs3)on2)cc1Cl | inactive |
| O=C(Nc1cccc(Cl)c1)Nc1cccc(C(=O)O)c1 | inconclusive: 11.6 µM [activator, partial curve] |

Carrying on:

SMILES | Potency
CSc1nsc(NC(=O)Cc2ccccc2)n1 | inconclusive: 29.1 µM [falling, single point]
Cc1onc(-c2ccccc2)c1C(=O)N/N=C/c1cc2c(cc1Br)OCO2 | inconclusive: 16.4 µM [falling, single point]
CC(C)N1C/C(=C/c2ccsc2)C(=O)/C(=C/c2ccsc2)C1 | inactive
Cn1cc(Br)c(C(=O)n2cc(Br)cn2)n1 | inactive
Cc1ccc2c(c1)C(SCC(=O)NCCc1ccccc1)CC1(CCCC1)O2 (stereo unspecified) | inconclusive: 25.9 µM [falling, single point]
O=C1CC2(CCN(C(=O)c3ccc([N+](=O)[O-])cc3)CC2)Oc2ccccc21 | inactive
Cc1nn(C(=O)c2cc3sccc3[nH]2)c(C)c1C | inconclusive: 9.2 µM [activator, partial curve]
Cc1nc(-c2cccnc2)sc1C(=O)Nc1ccc(Cl)cc1 | inconclusive: 16.4 µM [falling, partial curve, poor fit]
CCC(Sc1nnc(C)n2c1cc1occc12)C(=O)Nc1ccccc1F (stereo unspecified) | inconclusive: 11.6 µM [falling, partial curve]
CN(C)S(=O)(=O)c1cccc(NC(=O)c2ccc(-n3cncn3)c([N+](=O)[O-])c2)c1 | inconclusive: 23.1 µM [falling, partial curve, poor fit]
Cn1c(=O)n(C)c2cc(NS(=O)(=O)c3ccccc3)c(NCc3ccccc3)cc21 | inconclusive: 0.517 µM [falling, full curve]
CCOC(=O)c1cnn(-c2cc(C)c3ccccc3n2)c1N | inconclusive: 4.11 µM [activator, full curve, poor fit]
Oc1ccc(CCc2c(F)cccc2F)c2cccnc12 | inconclusive: 29.1 µM [falling, single point]
COc1ccc(-c2nn(C)c(=O)c3ccccc23)cc1NC(=O)Cn1nc(-c2ccccc2)c2ccccc2c1=O | inconclusive: 0.231 µM [falling, full curve, poor fit]
O=C(Nc1nnc(C2CC2)s1)c1ccncc1 | inconclusive: 29.1 µM [activator, single point]
OC1Cc2ccccc2C1Nc1cccc(C(F)(F)F)c1 (stereo unspecified) | inconclusive: 32.6 µM [falling, partial curve, poor fit]
N#Cc1cn(CCOc2ccccc2F)c2ccccc12 | inactive
CC(=O)Nc1c(C)ccc(S(N)(=O)=O)c1C | inconclusive: 29.1 µM [falling, single point]
CC(C)CNC(=O)c1nc(-c2ccccc2)n(-c2ccccc2)n1 | inconclusive: 16.4 µM [activator, partial curve]
O=C(Nc1ccc2ccccc2c1)c1onc2c1CCCC2 | inconclusive: 1.64 µM [activator, full curve]
COc1ccccc1CCNC(=O)CCc1c(C)c2cc3c(C)coc3c(C)c2oc1=O | inactive
Cc1cccc(N2CCN(C(=O)C3CCCN(S(=O)(=O)c4c(C)noc4C)C3)CC2)c1C (stereo unspecified) | inconclusive: 23.1 µM [falling, single point]

SMILES | Potency
Cc1ccc(S(=O)(=O)/N=C2/NC(=O)/C(=C\c3ccccc3)S2)cc1 | inconclusive: 29.1 µM [falling, single point]
COc1ccc(CN(C)C(=O)c2cc(-c3ccc(OC)c(OC)c3)nc3ccccc23)c(OC)c1 | inconclusive: 18.4 µM [falling, partial curve, poor fit]
CCCC(=O)Nc1ccc(C(=O)Nc2ccc([N+](=O)[O-])cc2OC)cc1 | inconclusive: 11.6 µM [falling, partial curve, poor fit]
O=C(Cn1c(=O)n(Cc2ccco2)c(=O)c2oc3ccccc3c21)Nc1ccc(F)cc1F | inconclusive: 10.3 µM [activator, partial curve, poor fit]
Cc1ccc(-c2c[n+](Cc3ccc(Cl)cc3)c3n2CCC3)cc1 | inconclusive: 14.6 µM [falling, single point]
Nc1nc2c(Cl)ccc(Cl)c2s1 | inactive
Cc1cccnc1CN1CCN(C(=O)c2cc(COc3ccc4ncccc4c3)on2)CC1 | active: 4.11 µM
COc1ccccc1CCCNC(=O)C1CCC(=O)N(Cc2ccccc2F)C1 (stereo unspecified) | inconclusive: 11.6 µM [activator, partial curve, poor fit]
O=C(CNS(=O)(=O)c1cccs1)N1CCCCC1 | inconclusive: 3.26 µM [falling, partial curve, poor fit]
CC1CCCCC12NC(=O)N(CC(=O)NCCc1c[nH]c3ccccc13)C2=O (stereo unspecified) | inconclusive: 32.6 µM [falling, single point]
COc1ccc(NC(=O)CN(C)C(=O)c2cccc(S(=O)(=O)N3CC4(C)CC3CC(C)(C)C4)c2)cc1 (stereo unspecified) | inconclusive: 32.6 µM [falling, single point]
CN(C)S(=O)(=O)c1ccc2nc(NC(=O)c3cccnc3)sc2c1 | inconclusive: 8.2 µM [activator, partial curve, poor fit]
O=C(NCc1cccs1)C1CCN(S(=O)(=O)c2ccc3c(c2)OCCO3)CC1 | inactive
CC1CCN(S(=O)(=O)c2ccc(NC(=O)C3CC(=O)N(c4ccccc4)C3)cc2)CC1 (stereo unspecified) | active: 6.51 µM
COc1ccc(N(C(=O)Cc2cccs2)C(C(=O)NC2CCCC2)c2ccncc2)cc1 (stereo unspecified) | inconclusive: 1.84 µM [falling, partial curve, poor fit]
O=C(O)c1cnn(-c2nc(-c3ccc(Br)cc3)cs2)c1C(F)(F)F | inactive
Cc1ccc(-c2nc3ccccc3n2C)o1 | inconclusive: 0.0651 µM [activator, full curve, poor fit]
CCCCCCCNC(=O)C1(CC2CC(c3cccc(Br)c3)=NO2)CCN(C(=O)OC(C)(C)C)CC1 (stereo unspecified) | inconclusive: 29.1 µM [activator, single point]
CC(=O)Nc1cccc(NC(=O)c2cc(-c3cccnc3)nc3ccc(Br)cc23)c1 | active: 11.6 µM
CCOC(=O)c1c(NC(=O)CSC2=NN3CCCC(=O)N=C3S2)sc2c1CCCCC2 | inconclusive: 6.51 µM [falling, partial curve]
Cc1ccc(-c2c(C)sc(=NC(=O)c3ccco3)n2C)cc1 | inconclusive: 2.91 µM [activator, full curve]
O=C(Nc1ccccc1C(=O)Nc1nnc(C(F)(F)F)s1)c1ccccc1 | inconclusive: 16.4 µM [falling, single point]
